# Source: PubChem BioAssay AID504467 (National Center for Advancing Translational Sciences (NCATS), 2011)
# About 7,700 (2.3%) of roughly 330,000 compounds were called active. The shares of active, inactive and inconclusive entries below differ from those in the screen. Calls follow the shape of the dose curve; as a rule, active = well fitted inhibition curve with a large enough effect; inconclusive = small, poorly fitted or top-dose-only effect, or effect the other way; inactive = flat fitted curve, though single readings scatter. Potencies beside an inconclusive call are fits to weak or partial responses and may not hold up.
# Experiment: qHTS screen for small molecules that inhibit ELG1-dependent DNA repair in human embryonic kidney (HEK293T) cells expressing luciferase-tagged ELG1; also: nearly all actives have a fitted effect of over 55% in size
# Conditions: HEK293T ELG1-luciferase reporter, luminescence, 16 h, DNA damage induced by 5-fluorouridine; activity change, negative = inhibition: at 46.1 µM (top of the series)
# Outline: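 DMSO vehicle served as the neutral condition. Each well held 2,000 cells given 5-fluorouridine plus compound; after 16 hr at 37 °C/5% CO2, ONE-Glo was added and luciferase measured 30 min later.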
# % is scaled to controls: 0 for no effect and ±100 for the full control effect; potency is read from the fitted curve at half-maximal effect.
Compound,Potency,"activity change, negative = inhibition"
CC(C)(C)CC(=O)O/N=C(\N)c1ccncc1,"inconclusive: 18.3 µM [activator, partial curve, poor fit]",–
O=C(CSc1nnc(-c2ccco2)n1Cc1ccccc1)c1ccc(F)cc1,–,inactive: 6.38%
CCN(Cc1ccccc1)C(=O)c1ccc(NC(=O)c2ccc(OC)cc2)cc1,"inconclusive: 14.6 µM [inhibitor, partial curve, poor fit]",–
COc1cc(C)c(COc2ncnc3ccccc23)cc1OC,"inconclusive: 9.2 µM [inhibitor, partial curve]",–
Cc1nc2ccccc2cc1OCc1ccc(Cl)cc1,"inconclusive: 25.9 µM [activator, single point]",–
O=C(N/N=C/c1ccncc1)c1cccc([N+](=O)[O-])c1,–,inactive: 2.24%
CCCc1cc(C(=O)Nc2ccc(F)cc2F)no1,"inconclusive: 18.4 µM [activator, partial curve]",–
COC(=O)c1ccc(NC(=O)CCN2CCN(CCC(=O)Nc3ccc(C(=O)OC)cc3)CC2)cc1,"inconclusive: 2.59 µM [inhibitor, full curve, poor fit]",–
COc1cc(/C=N/NS(=O)(=O)c2ccc(Br)cc2)ccc1O,–,inactive: -9.49%
COc1cc2c(cc1NC(=S)NC(=O)/C=C/c1ccco1)oc1ccccc12,–,inactive: -8.34%
COC(=O)/C=C1/S/C(=N/NC(=O)c2ccccc2OC)NC1=O,"inconclusive: 20.6 µM [activator, single point]",–
CC(=O)Nc1cccc(NC(=O)c2ccccc2OCc2ccccc2)c1,"inconclusive: 29.1 µM [inhibitor, single point]",–
COc1cccc(C(=O)Cn2c(Br)nc3c2c(=O)n(C)c(=O)n3C)c1,"inconclusive: 20.6 µM [inhibitor, single point]",–
Clc1ccccc1C1=Nn2c(nnc2-c2ccncc2)SC1,active: 4.61 µM,–
CC(=O)c1ccc(N2CCN(C(=O)c3cc4c(-c5ccccc5F)nn(C)c4s3)CC2)cc1,active: 18.4 µM,–
CCc1ccc(C(=O)COC(=O)CNC(=O)C2CCCCC2)cc1,"inconclusive: 10.3 µM [activator, partial curve]",–
O=C(c1cc2nc(-c3ccccc3)cc(-c3ccccc3)n2n1)N1CCN(C(=O)c2ccco2)CC1,"inconclusive: 7.31 µM [inhibitor, partial curve, poor fit]",–
c1ccc(CNc2nc3ccccc3[nH]2)cc1,"inconclusive: 4.11 µM [activator, partial curve]",–
O=C(Nc1cccc(S(=O)(=O)N2CCCCC2)c1)c1ccco1,–,inactive: 1.01%
O=C(N/N=C/c1cccnc1)c1ccccc1OCc1cccc(Br)c1,active: 20.6 µM,–

# 4 entries from above in a different format.
Compound | Potency | activity change, negative = inhibition
COc1cc(C)c(COc2ncnc3ccccc23)cc1OC | inconclusive: 9.2 µM [inhibitor, partial curve] | –
Cc1nc2ccccc2cc1OCc1ccc(Cl)cc1 | inconclusive: 25.9 µM [activator, single point] | –
O=C(N/N=C/c1ccncc1)c1cccc([N+](=O)[O-])c1 | – | inactive: 2.24%
CCCc1cc(C(=O)Nc2ccc(F)cc2F)no1 | inconclusive: 18.4 µM [activator, partial curve] | –
